No constants are given. Whether binding was seen depends on the method and setting. Binding can be weak; no strength is given. Where a sequence is shown, tags or fusion partners need not be part of it.
Molecular target: T1, HMGB2, yeast two-hybrid fusion (pGBKT7-HMGB2) (UniProt P26583)
T1 sequence: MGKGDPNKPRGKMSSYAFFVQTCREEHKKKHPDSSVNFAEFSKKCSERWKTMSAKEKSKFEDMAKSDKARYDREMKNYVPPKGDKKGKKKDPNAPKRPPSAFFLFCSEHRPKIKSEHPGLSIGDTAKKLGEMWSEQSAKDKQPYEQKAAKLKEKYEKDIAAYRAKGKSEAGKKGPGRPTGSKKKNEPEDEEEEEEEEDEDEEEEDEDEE
Experiment: two-hybrid; yeast; prey pGADT7-BRD4 with different BRD4 domains, bait pGBKT7-HMGB2; growth and blue colour on SD/-Trp/-Leu/-His/-Ade; prey and bait identities also exchanged

## BRD4 BD1 domain, yeast two-hybrid fusion (pGADT7-BRD4) (domain or fragment)
  binding: no binding

## BRD4 ET domain, yeast two-hybrid fusion (pGADT7-BRD4) (domain or fragment)
  binding: no binding

## BRD4 BD2 domain, yeast two-hybrid fusion (pGADT7-BRD4) (domain or fragment)
  binding: no binding

## BRD4 CTM domain, yeast two-hybrid fusion (pGADT7-BRD4) (domain or fragment)
  binding: binds

— publication PMC9617950
